Not every detail of the peptide structures is certain; ends, links or a residue may be inferred. Numbered stars: 1 amine (or outer) side, 2 acyl side, 3 side chain; on linkers, the order of the positions; unused ones are H or OH. Bridge positions count the residues as written; N and C are the ends. Square brackets hold non-standard residues; d marks the D form. Peptide text beside a SMILES is read from it. X1 = CCC(CC)(CC(=O)[*:1])S[*:2]
Target: T1, V2 -vasopressin receptors (Rattus norvegicus, UniProt Q00788)
T1 construct: from tissue; host or cells: whole animal (hydropenic rat)
Assay: in vivo diuretic activity in the hydropenic rat
Details: measure of V2 antagonism
Method: Antagonistic activity at the V2 -vasopressin receptors is determined in a protocol which determines in vivo diuretic activity in the hydropenic rat (ED300 μg/kg). This procedure is described in the literature: F. Stassen et al., 1st International Conference on Diuretics, Miami, FL., March (1984).

Protein sequences, listed by entry. Tags and fused reporters are not part of them.
UniProt Q00788, whole entry: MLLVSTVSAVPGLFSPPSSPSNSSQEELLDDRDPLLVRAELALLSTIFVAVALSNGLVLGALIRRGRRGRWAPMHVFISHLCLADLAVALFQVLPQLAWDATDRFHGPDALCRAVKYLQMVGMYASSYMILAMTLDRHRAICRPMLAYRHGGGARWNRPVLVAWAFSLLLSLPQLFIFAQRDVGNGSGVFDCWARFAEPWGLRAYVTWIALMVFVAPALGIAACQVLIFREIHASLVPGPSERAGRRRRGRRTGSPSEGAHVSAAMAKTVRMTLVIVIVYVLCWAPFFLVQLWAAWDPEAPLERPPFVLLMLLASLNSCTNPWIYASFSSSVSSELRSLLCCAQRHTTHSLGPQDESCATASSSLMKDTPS

CCOc1ccc(C[C@H]2NC(=O)CC(CC)(CC)SSC[C@@H](C(=O)N3CCC[C@H]3C(=O)N[C@@H](CCCNC(=N)N)C(=O)NCC(N)=O)NC(=O)[C@H](CC(N)=O)NC(=O)[C@H](C(C)C)NC(=O)[C@H](Cc3ccccc3)NC2=O)cc1 [Compound A, [1-(β,β-diethyl-β-mercaptopropionic acid)-2-(O-ethyl-D-tyrosine)-4-valine-8-arginine]vasopressin] ([dY](Et)FVNCPRG-NH2; linker N-5 via X1)
ED300: 0.027 mg/kg
